These are yes or no findings as the source states them, for the method shown. For part of these data: Binding seen in cells or lysates may run through a third protein. Some binding calls cover weakened binding; strength is not graded here.
Assays:
[1] = molecular target: recombinant Salp15 (Ixodes scapularis salivary protein Salp15) containing the V5 epitope and HIS-tag (Ixodes scapularis) (UniProt Q95WZ4); experiment: pull-down; Salp15 coupled via anti-V5 to protein A-Sepharose beads, incubated with lysate of immature DCs (cell-surface biotinylated or not; 10 mM triethanolamine pH 8.2, 150 mM NaCl, 1 mM MgCl2, 1 mM CaCl2, 1% Triton X-100); blot with streptavidin-peroxidase or goat anti-DC-SIGN; only the target purified
[2] = molecular target: DC-SIGN of immature human dendritic cells (human (endogenous in immature DCs)) (UniProt Q9NNX6); experiment: condition: only with EDTA (10 mM) or mannan (1 mg/ml); flow cytometry on cells; fluorescent bead adhesion assay: streptavidin TransFluorSpheres with biotinylated goat anti-mouse F(ab)2, mouse anti-V5 and Salp15 (or gp120-coated beads); 50,000 cells (immature DCs, or Raji-DC-SIGN) with beads 45 min at 37 °C; where indicated cells pre-treated 15 min at 37 °C with mannan (1 mg/ml), EDTA (10 mM) or sugars; only the binder purified
[3] = molecular target: recombinant Salp15 (Ixodes scapularis salivary protein Salp15) containing the V5 epitope and HIS-tag (Ixodes scapularis) (UniProt Q95WZ4); experiment: ELISA; plant lectin ELISA: Salp15 (5 μg/ml) coated on maxisorb plates 18 h at RT, blocked with 1% BSA, biotinylated lectins 5 μg/ml for 2 h, detected with peroxidase-labeled streptavidin; both purified

The chains behind the UniProt entries cited, without tags or fusion partners. Residues count along the entry.
UniProt Q95WZ4, residues 22-135: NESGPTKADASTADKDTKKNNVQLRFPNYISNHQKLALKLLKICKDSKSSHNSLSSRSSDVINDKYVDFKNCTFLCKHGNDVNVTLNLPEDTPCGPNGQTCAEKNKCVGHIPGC
UniProt Q9NNX6: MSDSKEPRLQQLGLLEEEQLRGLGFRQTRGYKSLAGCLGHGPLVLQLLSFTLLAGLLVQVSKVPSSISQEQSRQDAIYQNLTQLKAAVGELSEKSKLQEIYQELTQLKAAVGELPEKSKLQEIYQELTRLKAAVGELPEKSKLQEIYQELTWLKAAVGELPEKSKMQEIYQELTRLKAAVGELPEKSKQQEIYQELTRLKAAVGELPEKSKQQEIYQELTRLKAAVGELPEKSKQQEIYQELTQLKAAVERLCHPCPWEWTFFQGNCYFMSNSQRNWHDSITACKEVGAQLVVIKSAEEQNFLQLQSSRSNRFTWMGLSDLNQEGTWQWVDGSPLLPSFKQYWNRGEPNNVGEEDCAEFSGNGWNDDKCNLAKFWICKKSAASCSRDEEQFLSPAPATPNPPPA

DC-SIGN of immature human dendritic cells (from UniProt Q9NNX6 1-404) (receptor)
binding [1]: binds

recombinant Salp15 (Ixodes scapularis salivary protein Salp15) containing the V5 epitope and HIS-tag (from UniProt Q95WZ4 22-135)
binding [2]: no binding

B1: biotinylated Peanut agglutin (PNA) (protein, UniProt P02872 24-273)
chain: AETVSFNFNSFSEGNPAINFQGDVTVLSNGNIQLTNLNKVNSVGRVLYAMPVRIWSSATGNVASFLTSFSFEMKDIKDYDPADGIIFFIAPEDTQIPAGSIGGGTLGVSDTKGAGHFVGVEFDTYSNSEYNDPPTDHVGIDVNSVDSVKTVPWNSVSGAVVKVTVIYDSSTKTLSVAVTNDNGDITTIAQVVDLKAKLPERVKFGFSASGSLGGRQIHLIRSWSFTSTLITTTRRSIDNNEKKIMNMASA
modifications: biotin
binding [3]: binds

— article PMC2242833
